Experiment: Bioorthogonal click reaction in vitro followed by LC-MS
Details: 1:1 ratio in DMSO

With `C=CC(=O)Nc1ccccc1Nc1nc(Nc2ccnc(C#CCCNC(=O)OC3CC/C=C/CCC3)c2)ncc1Cl` (centres unmarked) [Probe 1, (4E)-Cyclooct-4-en-1-yl N-(4-{4-[(5-chloro-4-{[2-(prop-2-enamido)phenyl]amino}pyrimidin-2-yl)amino]pyridin-2-yl}but-3-yn-1-yl) carbamate] the “Time to complete bioorthogonal reaction with Tz-thalidomide” value was no more than 15 min.
In the case of `Cc1sc2c(c1C)C(c1ccc(Cl)cc1)=N[C@@H](CC(=O)NCCCNC(=O)OC1CC/C=C/CCC1)c1nnc(C)n1-2` (stereo partly drawn) [JQ1-TCO, (4E)-Cyclooct-4-en-1-yl N-(3-{2-[(9S)-7-(4-chlorophenyl)-4,5,13-trimethyl-3-thia-1,8,11,12-tetraazatricyclo[8.3.0.0^2,6]trideca-2(6),4,7,10,12-pentaen-9-yl]acetamido}propyl)carbamate], the “Time to complete bioorthogonal reaction with Tz-thalidomide” value is reported as no more than 15 min.

Source: patent US11786600B2, “Cliptac composition” (OTSUKA PHARMACEUTICAL CO., LTD., priority 2016, dated 2023)
